Paper PMC6022656
Results are given in words; binding and its absence hold for the method and conditions named. Binding seen in cells or lysates may run through a third protein. Some binding calls cover weakened binding; strength is not graded here. Sequences can lack the tags named with a protein.

Columns and labels:
[1] = molecular target: GST-OsCDKB1;1 (rice (Oryza sativa)), Q8L4P8; experiment: pull-down; GST-OsCDKB1;1 on glutathione-Sepharose incubated with His-OsCYCA2;1 supernatant, 4 °C, 2 h, PBS washes; eluted with 10 mM reduced glutathione; blot with anti-His6; only the target purified; details: remark: other sources report otherwise
[2] = molecular target: OsCDKB1;1 in pSPYNE-35S (BiFC fusion) (rice (Oryza sativa)), Q8L4P8; experiment: split reporter; BiFC; pSPYCE-35S-OsCYCA2;1 and pSPYNE-35S-OsCDKB1;1 co-injected into N. benthamiana leaves; confocal images after 3 d; details: remark: other sources report otherwise

binding [1] | binding [2] | Binder
binds | – | His-OsCYCA2;1, Q2QQ96 1-490 (protein) MAGRKENPVLTACQAPSGRITRAQAAANRGRFGFAPSVSLPARTERKQTAKGKTKRGALDEITSASTATSAPQPKRRTVLKDVTNIGCANSSKNCTTTSKLQQKSKPTQRVKQIPSKKQCAKKVPKLPPPAVAGTSFVIDSKSSEETQKVELLAKAEEPTNLFENEGLLSLQNIERNRDSNCHEAFFEARNAMDKHELADSKPGDSSGLGFIDIDNDNGNPQMCASYASEIYTNLMASELIRRPRSNYMEALQRDITKGMRGILIDWLVEVSEEYKLVPDTLYLTINLIDRFLSQHYIERQKLQLLGITSMLIASKYEEICAPRVEEFCFITDNTYTKAEVLKMEGLVLNDMGFHLSVPTTKTFLRRFLRAAQASRNVPSITLGYLANYLAELTLIDYSFLKFLPSVVAASAVFLARWTLDQSDIPWNHTLEHYTSYKSSDIQICVCALRELQHNTSNCPLNAIREKYRQQKFECVANLTSPELGQSLFS
– | binds | OsCYCA2;1 in pSPYCE-35S (BiFC fusion), Q2QQ96 1-490 (protein) MAGRKENPVLTACQAPSGRITRAQAAANRGRFGFAPSVSLPARTERKQTAKGKTKRGALDEITSASTATSAPQPKRRTVLKDVTNIGCANSSKNCTTTSKLQQKSKPTQRVKQIPSKKQCAKKVPKLPPPAVAGTSFVIDSKSSEETQKVELLAKAEEPTNLFENEGLLSLQNIERNRDSNCHEAFFEARNAMDKHELADSKPGDSSGLGFIDIDNDNGNPQMCASYASEIYTNLMASELIRRPRSNYMEALQRDITKGMRGILIDWLVEVSEEYKLVPDTLYLTINLIDRFLSQHYIERQKLQLLGITSMLIASKYEEICAPRVEEFCFITDNTYTKAEVLKMEGLVLNDMGFHLSVPTTKTFLRRFLRAAQASRNVPSITLGYLANYLAELTLIDYSFLKFLPSVVAASAVFLARWTLDQSDIPWNHTLEHYTSYKSSDIQICVCALRELQHNTSNCPLNAIREKYRQQKFECVANLTSPELGQSLFS
